Assay [1] addresses T1, OsJAZ6-cYFP (rice (Oryza sativa)) (UniProt Q84R94).
T1 sequence: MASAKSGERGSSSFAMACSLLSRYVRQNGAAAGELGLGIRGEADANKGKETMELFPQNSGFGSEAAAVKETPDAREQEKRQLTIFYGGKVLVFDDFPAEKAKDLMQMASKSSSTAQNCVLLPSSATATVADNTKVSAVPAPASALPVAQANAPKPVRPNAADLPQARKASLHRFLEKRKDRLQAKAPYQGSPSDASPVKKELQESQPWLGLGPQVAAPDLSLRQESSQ
Briefly: split reporter; BiFC with the N- and C-terminal regions of YFP; rice protoplasts by the results and legend, agroinfiltrated Nicotiana benthamiana leaves by the methods; confocal microscopy.

Assay [2] has as its target T2, OsJAZ7-cYFP (rice (Oryza sativa)) (UniProt Q8H395).
T2 sequence: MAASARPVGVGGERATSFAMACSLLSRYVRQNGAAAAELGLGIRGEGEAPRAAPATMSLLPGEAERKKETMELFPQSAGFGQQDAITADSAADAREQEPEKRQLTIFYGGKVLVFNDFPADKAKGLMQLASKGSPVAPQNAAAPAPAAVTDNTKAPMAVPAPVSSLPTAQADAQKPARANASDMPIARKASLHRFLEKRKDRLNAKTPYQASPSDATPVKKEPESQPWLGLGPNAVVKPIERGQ
Described as above.

The target of assay [3] is GST::OsABI3 fusion protein (rice (Oryza sativa)). Briefly: pull-down; 2 μg MBP::OsJAZ6 or MBP::OsJAZ7 prey incubated with 2 μg immobilized GST, GST::OsABI3 or GST::OsABI5 bait; washed three times; immunoblot with anti-GST and anti-MBP; both purified.
For assay [4], the target named is glutathione-S-transferase (GST) alone. The assay is described as above.

These are yes or no findings as the source states them, for the method shown. For part of these data: Binding calls can cover weak binding; strength is not graded here. Sequences can lack the tags named with a protein. For part of these data: In cells and extracts the contact can be indirect.

Experimental findings from PMC10121563 (2023) are described below.

With OsABI3-nYFP (rice (Oryza sativa)), the binding result in assay [1] and in assay [2] was “binds” in each case.

B1: MBP::OsJAZ6 fusion protein (protein)
chain: T1 sequence
Take B1: the values for the binding result in assay [3] and in assay [4] were “binds” and “no binding”, respectively.

B2: MBP::OsJAZ7 fusion protein (protein)
chain: T2 sequence
Consider B2, for which the figures for the binding entry in assay [3] and in assay [4] were “binds” and “no binding”, respectively.
